In the supplement of paper PMC8612539:
In brackets after ≈: the same amount, converted by molar mass. Further values from the same series stand in other lists.

Tested on: Pasteurella multocida
Assay: minimum inhibitory concentration (MIC)
Protocol: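 Broth microdilution MIC (Sensititre BOPO7F bovine plate, CLSI methods) of 19 antimicrobials against field isolates of P. multocida, M. haemolytica, H. somni (deep nasopharyngeal swabs) and E. coli, Enterococcus spp. (rectal swabs) from weaned dairy heifers. Incubation 16-24 h at 35 C. MIC is the lowest concentration preventing visible growth. Values with <= or > lie at the tested range limits. Trimethoprim-sulfamethoxazole is given as the trimethoprim component of a 1:19 mixture.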

CCN1CCN(c2cc3c(cc2F)c(=O)c(C(=O)O)cn3C2CC2)CC1 [Enrofloxacin]
Settings	minimum inhibitory concentration [µg/mL]
isolate (source animal id): 30	1 (≈ 2.78 µM)
isolate (source animal id): 34	2 (≈ 5.56 µM)
isolate (source animal id): 36	2 (≈ 5.56 µM)
isolate (source animal id): 37	2 (≈ 5.56 µM)
isolate (source animal id): 46	≤ 0.12
isolate (source animal id): 48	2 (≈ 5.56 µM)
isolate (source animal id): 49	2 (≈ 5.56 µM)
isolate (source animal id): 54	1 (≈ 2.78 µM)
isolate (source animal id): 55	1 (≈ 2.78 µM)
isolate (source animal id): 58	2 (≈ 5.56 µM)
isolate (source animal id): 60	1 (≈ 2.78 µM)
isolate (source animal id): 61	> 2
isolate (source animal id): 63	2 (≈ 5.56 µM)
isolate (source animal id): 64	2 (≈ 5.56 µM)
isolate (source animal id): 65	> 2
isolate (source animal id): 66	2 (≈ 5.56 µM)
isolate (source animal id): 67	2 (≈ 5.56 µM)
isolate (source animal id): 69	2 (≈ 5.56 µM)
isolate (source animal id): 73	1 (≈ 2.78 µM)
isolate (source animal id): 75	2 (≈ 5.56 µM)
isolate (source animal id): 76	1 (≈ 2.78 µM)
isolate (source animal id): 77	0.5 (≈ 1.39 µM)
isolate (source animal id): 78	1 (≈ 2.78 µM)
isolate (source animal id): 80	1 (≈ 2.78 µM)
isolate (source animal id): 82	1 (≈ 2.78 µM)
isolate (source animal id): 83	1 (≈ 2.78 µM)
isolate (source animal id): 88	≤ 0.12
isolate (source animal id): 92	0.5 (≈ 1.39 µM)
isolate (source animal id): 94	2 (≈ 5.56 µM)
isolate (source animal id): 318	≤ 0.12
isolate (source animal id): 319	≤ 0.12
isolate (source animal id): 320	1 (≈ 2.78 µM)
isolate (source animal id): 321	1 (≈ 2.78 µM)
isolate (source animal id): 322	1 (≈ 2.78 µM)
isolate (source animal id): 324	1 (≈ 2.78 µM)
isolate (source animal id): 325	1 (≈ 2.78 µM)
isolate (source animal id): 328	1 (≈ 2.78 µM)
isolate (source animal id): 330	1 (≈ 2.78 µM)
isolate (source animal id): 331	≤ 0.12
isolate (source animal id): 333	≤ 0.12
isolate (source animal id): 336	1 (≈ 2.78 µM)
isolate (source animal id): 337	1 (≈ 2.78 µM)
isolate (source animal id): 339	1 (≈ 2.78 µM)
isolate (source animal id): 340	≤ 0.12
isolate (source animal id): 341	≤ 0.12

CS(=O)(=O)c1ccc([C@@H](O)[C@@H](CF)NC(=O)C(Cl)Cl)cc1 [Florfenicol]
Settings	minimum inhibitory concentration [µg/mL]
isolate (source animal id): 30	> 8
isolate (source animal id): 34	8 (≈ 22.3 µM)
isolate (source animal id): 36	8 (≈ 22.3 µM)
isolate (source animal id): 37	8 (≈ 22.3 µM)
isolate (source animal id): 46	0.5 (≈ 1.4 µM)
isolate (source animal id): 48	> 8
isolate (source animal id): 49	8 (≈ 22.3 µM)
isolate (source animal id): 54	8 (≈ 22.3 µM)
isolate (source animal id): 55	8 (≈ 22.3 µM)
isolate (source animal id): 58	4 (≈ 11.2 µM)
isolate (source animal id): 60	> 8
isolate (source animal id): 61	> 8
isolate (source animal id): 63	8 (≈ 22.3 µM)
isolate (source animal id): 64	4 (≈ 11.2 µM)
isolate (source animal id): 65	> 8
isolate (source animal id): 66	8 (≈ 22.3 µM)
isolate (source animal id): 67	8 (≈ 22.3 µM)
isolate (source animal id): 69	> 8
isolate (source animal id): 73	8 (≈ 22.3 µM)
isolate (source animal id): 75	8 (≈ 22.3 µM)
isolate (source animal id): 76	8 (≈ 22.3 µM)
isolate (source animal id): 77	0.5 (≈ 1.4 µM)
isolate (source animal id): 78	8 (≈ 22.3 µM)
isolate (source animal id): 80	8 (≈ 22.3 µM)
isolate (source animal id): 82	8 (≈ 22.3 µM)
isolate (source animal id): 83	0.5 (≈ 1.4 µM)
isolate (source animal id): 88	4 (≈ 11.2 µM)
isolate (source animal id): 92	0.5 (≈ 1.4 µM)
isolate (source animal id): 94	4 (≈ 11.2 µM)
isolate (source animal id): 318	0.5 (≈ 1.4 µM)
isolate (source animal id): 319	0.5 (≈ 1.4 µM)
isolate (source animal id): 320	8 (≈ 22.3 µM)
isolate (source animal id): 321	> 8
isolate (source animal id): 322	8 (≈ 22.3 µM)
isolate (source animal id): 324	8 (≈ 22.3 µM)
isolate (source animal id): 325	8 (≈ 22.3 µM)
isolate (source animal id): 328	> 8
isolate (source animal id): 330	8 (≈ 22.3 µM)
isolate (source animal id): 331	≤ 0.25
isolate (source animal id): 333	1 (≈ 2.79 µM)
isolate (source animal id): 336	0.5 (≈ 1.4 µM)
isolate (source animal id): 337	> 8
isolate (source animal id): 339	8 (≈ 22.3 µM)
isolate (source animal id): 340	> 8
isolate (source animal id): 341	0.5 (≈ 1.4 µM)

CCCN1C[C@H](C)[C@@H](O)[C@](C)(O)[C@@H](CC)OC(=O)[C@H](C)[C@@H](O[C@H]2C[C@@](C)(OC)[C@@H](O)[C@H](C)O2)[C@H](C)[C@@H](O[C@@H]2O[C@H](C)C[C@H](N(C)C)[C@H]2O)[C@](C)(O)C[C@H]1C [Gamithromycin]
Settings	minimum inhibitory concentration [µg/mL]
isolate (source animal id): 30	8 (≈ 10.3 µM)
isolate (source animal id): 34	8 (≈ 10.3 µM)
isolate (source animal id): 36	4 (≈ 5.15 µM)
isolate (source animal id): 37	4 (≈ 5.15 µM)
isolate (source animal id): 46	≤ 1
isolate (source animal id): 48	8 (≈ 10.3 µM)
isolate (source animal id): 49	8 (≈ 10.3 µM)
isolate (source animal id): 54	8 (≈ 10.3 µM)
isolate (source animal id): 55	8 (≈ 10.3 µM)
isolate (source animal id): 58	≤ 1
isolate (source animal id): 60	8 (≈ 10.3 µM)
isolate (source animal id): 61	8 (≈ 10.3 µM)
isolate (source animal id): 63	8 (≈ 10.3 µM)
isolate (source animal id): 64	≤ 1
isolate (source animal id): 65	8 (≈ 10.3 µM)
isolate (source animal id): 66	> 8
isolate (source animal id): 67	8 (≈ 10.3 µM)
isolate (source animal id): 69	> 8
isolate (source animal id): 73	8 (≈ 10.3 µM)
isolate (source animal id): 75	8 (≈ 10.3 µM)
isolate (source animal id): 76	8 (≈ 10.3 µM)
isolate (source animal id): 77	> 8
isolate (source animal id): 78	8 (≈ 10.3 µM)
isolate (source animal id): 80	> 8
isolate (source animal id): 82	> 8
isolate (source animal id): 83	> 8
isolate (source animal id): 88	> 8
isolate (source animal id): 92	> 8
isolate (source animal id): 94	8 (≈ 10.3 µM)
isolate (source animal id): 318	8 (≈ 10.3 µM)
isolate (source animal id): 319	8 (≈ 10.3 µM)
isolate (source animal id): 320	> 8
isolate (source animal id): 321	> 8
isolate (source animal id): 322	8 (≈ 10.3 µM)
isolate (source animal id): 324	> 8
isolate (source animal id): 325	8 (≈ 10.3 µM)
isolate (source animal id): 328	8 (≈ 10.3 µM)
isolate (source animal id): 330	8 (≈ 10.3 µM)
isolate (source animal id): 331	≤ 1
isolate (source animal id): 333	8 (≈ 10.3 µM)
isolate (source animal id): 336	> 8
isolate (source animal id): 337	8 (≈ 10.3 µM)
isolate (source animal id): 339	> 8
isolate (source animal id): 340	8 (≈ 10.3 µM)
isolate (source animal id): 341	8 (≈ 10.3 µM)

CNC(C)C1CCC(N)C(OC2C(N)CC(N)C(OC3OCC(C)(O)C(NC)C3O)C2O)O1 (stereo not given) [Gentamicin]
Settings	minimum inhibitory concentration [µg/mL]
isolate (source animal id): 30	4 (≈ 8.38 µM)
isolate (source animal id): 34	4 (≈ 8.38 µM)
isolate (source animal id): 36	4 (≈ 8.38 µM)
isolate (source animal id): 37	4 (≈ 8.38 µM)
isolate (source animal id): 46	8 (≈ 16.8 µM)
isolate (source animal id): 48	8 (≈ 16.8 µM)
isolate (source animal id): 49	4 (≈ 8.38 µM)
isolate (source animal id): 54	2 (≈ 4.19 µM)
isolate (source animal id): 55	2 (≈ 4.19 µM)
isolate (source animal id): 58	4 (≈ 8.38 µM)
isolate (source animal id): 60	4 (≈ 8.38 µM)
isolate (source animal id): 61	2 (≈ 4.19 µM)
isolate (source animal id): 63	4 (≈ 8.38 µM)
isolate (source animal id): 64	4 (≈ 8.38 µM)
isolate (source animal id): 65	2 (≈ 4.19 µM)
isolate (source animal id): 66	4 (≈ 8.38 µM)
isolate (source animal id): 67	2 (≈ 4.19 µM)
isolate (source animal id): 69	2 (≈ 4.19 µM)
isolate (source animal id): 73	2 (≈ 4.19 µM)
isolate (source animal id): 75	2 (≈ 4.19 µM)
isolate (source animal id): 76	2 (≈ 4.19 µM)
isolate (source animal id): 77	2 (≈ 4.19 µM)
isolate (source animal id): 78	2 (≈ 4.19 µM)
isolate (source animal id): 80	4 (≈ 8.38 µM)
isolate (source animal id): 82	4 (≈ 8.38 µM)
isolate (source animal id): 83	4 (≈ 8.38 µM)
isolate (source animal id): 88	8 (≈ 16.8 µM)
isolate (source animal id): 92	4 (≈ 8.38 µM)
isolate (source animal id): 94	4 (≈ 8.38 µM)
isolate (source animal id): 318	4 (≈ 8.38 µM)
isolate (source animal id): 319	4 (≈ 8.38 µM)
isolate (source animal id): 320	4 (≈ 8.38 µM)
isolate (source animal id): 321	4 (≈ 8.38 µM)
isolate (source animal id): 322	4 (≈ 8.38 µM)
isolate (source animal id): 324	4 (≈ 8.38 µM)
isolate (source animal id): 325	4 (≈ 8.38 µM)
isolate (source animal id): 328	2 (≈ 4.19 µM)
isolate (source animal id): 330	2 (≈ 4.19 µM)
isolate (source animal id): 331	4 (≈ 8.38 µM)
isolate (source animal id): 333	4 (≈ 8.38 µM)
isolate (source animal id): 336	2 (≈ 4.19 µM)
isolate (source animal id): 337	4 (≈ 8.38 µM)
isolate (source animal id): 339	4 (≈ 8.38 µM)
isolate (source animal id): 340	4 (≈ 8.38 µM)
isolate (source animal id): 341	4 (≈ 8.38 µM)

NC[C@@H]1O[C@H](O[C@H]2[C@@H](O)[C@H](O[C@@H]3[C@@H](O)[C@H](N)C[C@H](N)[C@H]3O[C@H]3O[C@H](CN)[C@@H](O)[C@H](O)[C@H]3N)O[C@@H]2CO)[C@H](N)[C@@H](O)[C@@H]1O [Neomycin]
Settings	minimum inhibitory concentration [µg/mL]
isolate (source animal id): 30	> 32
isolate (source animal id): 34	> 32
isolate (source animal id): 36	> 32
isolate (source animal id): 37	> 32
isolate (source animal id): 46	> 32
isolate (source animal id): 48	> 32
isolate (source animal id): 49	> 32
isolate (source animal id): 54	> 32
isolate (source animal id): 55	> 32
isolate (source animal id): 58	> 32
isolate (source animal id): 60	> 32
isolate (source animal id): 61	> 32
isolate (source animal id): 63	> 32
isolate (source animal id): 64	> 32
isolate (source animal id): 65	> 32
isolate (source animal id): 66	> 32
isolate (source animal id): 67	> 32
isolate (source animal id): 69	> 32
isolate (source animal id): 73	> 32
isolate (source animal id): 75	> 32
isolate (source animal id): 76	> 32
isolate (source animal id): 77	> 32
isolate (source animal id): 78	> 32
isolate (source animal id): 80	> 32
isolate (source animal id): 82	> 32
isolate (source animal id): 83	> 32
isolate (source animal id): 88	> 32
isolate (source animal id): 92	> 32
isolate (source animal id): 94	> 32
isolate (source animal id): 318	> 32
isolate (source animal id): 319	> 32
isolate (source animal id): 320	> 32
isolate (source animal id): 321	> 32
isolate (source animal id): 322	> 32
isolate (source animal id): 324	> 32
isolate (source animal id): 325	> 32
isolate (source animal id): 328	> 32
isolate (source animal id): 330	> 32
isolate (source animal id): 331	32 (≈ 52.1 µM)
isolate (source animal id): 333	> 32
isolate (source animal id): 336	> 32
isolate (source animal id): 337	> 32
isolate (source animal id): 339	> 32
isolate (source animal id): 340	> 32
isolate (source animal id): 341	> 32
